This note sets out measurements from paper PMC6527704.

Amino acid sequences for entries named in this document (tags omitted). A change or cut given only in a name is not applied to a line headed by its entry.
UniProt Q01780: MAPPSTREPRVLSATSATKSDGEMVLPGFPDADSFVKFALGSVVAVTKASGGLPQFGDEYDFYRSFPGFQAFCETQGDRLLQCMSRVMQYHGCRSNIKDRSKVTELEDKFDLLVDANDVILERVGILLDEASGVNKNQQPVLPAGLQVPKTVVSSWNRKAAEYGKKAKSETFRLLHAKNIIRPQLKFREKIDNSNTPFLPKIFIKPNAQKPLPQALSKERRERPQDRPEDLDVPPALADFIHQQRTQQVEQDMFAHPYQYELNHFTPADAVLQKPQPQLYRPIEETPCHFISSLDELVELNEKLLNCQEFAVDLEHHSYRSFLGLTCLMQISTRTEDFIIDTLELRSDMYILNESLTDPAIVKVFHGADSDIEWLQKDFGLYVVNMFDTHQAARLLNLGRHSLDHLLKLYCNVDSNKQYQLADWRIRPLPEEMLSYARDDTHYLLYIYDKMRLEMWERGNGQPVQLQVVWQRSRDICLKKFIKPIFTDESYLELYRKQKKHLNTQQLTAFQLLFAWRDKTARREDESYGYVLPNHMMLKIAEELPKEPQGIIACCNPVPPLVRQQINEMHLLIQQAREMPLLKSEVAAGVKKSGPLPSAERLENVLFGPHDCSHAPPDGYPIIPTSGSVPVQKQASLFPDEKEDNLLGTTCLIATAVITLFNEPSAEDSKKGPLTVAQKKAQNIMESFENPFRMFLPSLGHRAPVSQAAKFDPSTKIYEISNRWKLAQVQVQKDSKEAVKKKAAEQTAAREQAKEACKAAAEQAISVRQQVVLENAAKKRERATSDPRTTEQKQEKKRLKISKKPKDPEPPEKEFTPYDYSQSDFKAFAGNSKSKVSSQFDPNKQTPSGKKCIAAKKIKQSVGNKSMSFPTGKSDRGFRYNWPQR
UniProt Q15910: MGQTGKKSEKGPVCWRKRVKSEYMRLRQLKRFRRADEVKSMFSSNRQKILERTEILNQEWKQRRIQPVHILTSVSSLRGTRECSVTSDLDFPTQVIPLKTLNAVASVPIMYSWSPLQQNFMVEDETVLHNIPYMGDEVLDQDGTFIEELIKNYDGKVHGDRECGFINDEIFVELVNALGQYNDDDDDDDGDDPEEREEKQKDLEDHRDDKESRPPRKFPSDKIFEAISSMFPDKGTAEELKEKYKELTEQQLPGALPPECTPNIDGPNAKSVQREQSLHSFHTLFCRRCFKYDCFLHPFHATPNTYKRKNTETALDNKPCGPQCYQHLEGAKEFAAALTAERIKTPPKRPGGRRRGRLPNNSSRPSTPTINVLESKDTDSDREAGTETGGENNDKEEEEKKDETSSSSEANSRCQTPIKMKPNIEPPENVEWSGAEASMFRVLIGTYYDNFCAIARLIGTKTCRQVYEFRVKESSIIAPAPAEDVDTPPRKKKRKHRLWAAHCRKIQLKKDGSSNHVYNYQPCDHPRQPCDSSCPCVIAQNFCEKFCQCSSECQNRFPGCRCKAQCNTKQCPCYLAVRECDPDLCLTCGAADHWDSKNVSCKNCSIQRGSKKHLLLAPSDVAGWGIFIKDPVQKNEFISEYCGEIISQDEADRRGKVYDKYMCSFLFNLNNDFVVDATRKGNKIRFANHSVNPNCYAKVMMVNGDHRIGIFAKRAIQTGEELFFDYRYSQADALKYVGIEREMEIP
UniProt Q13547: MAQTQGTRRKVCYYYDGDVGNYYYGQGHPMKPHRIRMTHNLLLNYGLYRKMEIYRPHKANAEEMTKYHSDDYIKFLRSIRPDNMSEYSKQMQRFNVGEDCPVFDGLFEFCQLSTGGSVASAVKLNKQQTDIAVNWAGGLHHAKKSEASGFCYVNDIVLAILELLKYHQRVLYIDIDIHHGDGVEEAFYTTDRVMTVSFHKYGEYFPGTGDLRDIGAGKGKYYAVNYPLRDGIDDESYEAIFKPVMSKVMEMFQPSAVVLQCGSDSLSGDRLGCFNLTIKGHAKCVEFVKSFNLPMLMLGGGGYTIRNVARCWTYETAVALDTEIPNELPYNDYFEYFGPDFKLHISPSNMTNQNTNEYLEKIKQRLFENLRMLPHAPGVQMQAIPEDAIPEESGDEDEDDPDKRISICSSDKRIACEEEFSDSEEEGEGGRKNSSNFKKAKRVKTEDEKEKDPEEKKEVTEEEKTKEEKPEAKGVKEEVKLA

The target in assay [1] is T1, exosome-associated protein C1D (human (endogenous in primary lung fibroblasts)) (UniProt Q13901).
T1 sequence: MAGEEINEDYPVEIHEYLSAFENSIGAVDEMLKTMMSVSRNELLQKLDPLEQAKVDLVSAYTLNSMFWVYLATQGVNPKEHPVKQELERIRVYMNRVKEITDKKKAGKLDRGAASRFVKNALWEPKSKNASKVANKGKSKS
Nature of the assay: co-IP; C1D-specific antibodies precipitate endogenous C1D from nuclear protein extracts of IPF primary human lung fibroblasts transfected with a dominant-negative EP300 (dnEP300, D1399Y) expression construct; western blot.

In assay [2] the target is T1, exosome-associated protein C1D (human (endogenous in primary lung fibroblasts)). Nature of the assay: co-IP; C1D-specific antibodies precipitate endogenous C1D from nuclear protein extracts of Ctrl primary human lung fibroblasts transfected with HA-tagged EXOSC10 full-length or del3 (lacking amino acids 1-285); western blot.
Assay [3] addresses MiCEE complex (Mirlet7d-C1D-EXOSC10-EZH2) (human (endogenous in primary lung fibroblasts)) (UniProt Q13901+Q01780+Q15910). Nature of the assay: co-sedimentation; 5-40% sucrose gradient ultracentrifugation (16 h 30 min, 132,000 x g) of nuclear extracts from Ctrl primary human lung fibroblasts in native nuclear lysis buffer (100 mM NaCl, 50 mM Tris-HCl pH 7.0); ten fractions analysed by western blot; the complex was also reconstituted in IPF fibroblasts transfected with MIRLET7D.

The target in assay [4] is T1, exosome-associated protein C1D (human (endogenous in primary lung fibroblasts)). Nature of the assay: condition: only nuclear extracts of IPF fibroblasts (empty plasmid, lane 7); co-IP; C1D-specific antibodies precipitate endogenous C1D from nuclear protein extracts of IPF primary human lung fibroblasts transfected with empty plasmid (lane 7); western blot.
The target is the same in assay [5]. Kind of assay: co-IP; C1D-specific antibodies precipitate endogenous C1D from nuclear protein extracts of IPF primary human lung fibroblasts treated with the EP300 inhibitor CBP30 (EP300inh); western blot.

These are yes or no findings as the source states them, for the method shown. Binding seen in cells or lysates may run through a third protein. Some binding calls cover weakened binding; strength is not graded here.

Regarding “histone deacetylase 1 (from UniProt Q13547 1-482) (enzyme)”, the binding entry in assay [1] is on record as “binds”; in assay [2], “binds”; in assay [3], “binds”; in assay [4], “no binding”; in assay [5] it was “binds”.
